Data from patent publication US4060526A, “1-Heterocyclic alkyl-1,2,3,4-tetrahydroquinazolinones and analgesic intermediates thereof” (priority 1976, dated 1977).

Legend:
[1] = phenylbenzoquinone writhing test, mouse; conditions: in vivo, po, Mouse p.o.
Text: […]. […] Ten animals are used at each dose level.

in vivo [2] = conditions: Morphine and Codeine columns
in vivo [3] = conditions: ip
[4] = mouse hot plate test (Eddy and Leimbach, modified); conditions: in vivo

With `CN1CC[C@]23c4c5ccc(O)c4O[C@H]2[C@@H](O)C=C[C@H]3[C@H]1C5` [Morphine, reference compound] the selectivity ratio ([1]; HNSD = highest dose without gross symptoms, read-out: HNSD./ED50 Writhing) was 19, the selectivity ratio ([1]; read-out: LD50 /ED50 Writhing) was 267 and the LD50 at 48 h (in vivo [2]; ip, Mouse i.p.) was 250 mg/kg. For the same compound, the LD50 at 48 h (in vivo [2]; po, Mouse p.o.) was 800 mg/kg, the LD50 (in vivo [3]) was 380 mg/kg and the NOAEL (in vivo [3]) was 10 mg/kg. For the same compound, the selectivity ratio ([4]; ip, HNSD./ED50 H.P., Mouse i.p., HNSD = highest dose without gross symptoms) was 4, the selectivity ratio ([4]; ip, LD50 /ED50 H.P., Mouse i.p.) was 100 and the selectivity ratio ([4]; po, HNSD./ED50 H.P., Mouse p.o., HNSD = highest dose without gross symptoms) was 4. The selectivity ratio ([4]; po, LD50 /ED50 H.P., Mouse p.o.) was 570.
